Structures can show the parent of a compound that is named as a salt. The list shows a part of the results. This data set is noisy: repeats of one test often differ as much as different tests do.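 JEG3 cells stably carry tetracycline-induced wild-type human LRH-1, a heavily sumoylated nuclear receptor. APOC3 and MUC1 are SUMO-sensitive transcripts, raised by SUMO-less LRH-1 or UBC9 knockdown, measured by RT-qPCR against TBP and DMSO controls. A robust Z-score above +2 or below -2 marked a primary hit before toxicity and TBP filtering.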

For this assay, the system named is JEG3 expressing hLRH-1. As to the kind of experiment: MUC1 transcript change (ddCt vs TBP and DMSO), Z-score over library; higher = higher MUC1 expression. The settings on record: 10 µM; time (hr): 24.
Consider `CCOC(=O)COc1ccc2c(=O)cc(-c3ccccc3)oc2c1` [efloxate], for which the “MUC1 transcript change (Z-score)” value is -0.222.
The result for `COc1ccccc1OCC(O)CN1CCN(CC(=O)Nc2c(C)cccc2C)CC1` (stereo not drawn) [ranolazine] reads 0.79; that for `N=c1ccn2c(n1)O[C@H]1[C@H](O)[C@@H](CO)O[C@H]12` [ancitabine hydrochloride], 0.907; that for `CC(=O)Oc1c(C)cccc1C(=O)O` [cresopyrine], 0.273.
Turning to `C#C[C@]1(O)CCC2C3CCC4=CC(=O)CC[C@@H]4C3CC[C@@]21C` (stereo partly drawn) [norethindrone], the “MUC1 transcript change (Z-score)” value is -0.288.
With `N[C@H](Cc1ccccc1)C(=O)O` [d-phenylalanine], the “MUC1 transcript change (Z-score)” value turned out to be 0.939.
As for `CNCC[C@H](Oc1cccc2ccccc12)c1cccs1` [duloxetine hydrochloride], the “MUC1 transcript change (Z-score)” value was -0.297.
For `NC(N)=O` [urea], the “MUC1 transcript change (Z-score)” value worked out at 0.284.
For `COc1ccc2cc(CCC(C)=O)ccc2c1` [nabumetone] the value was -0.246.
The result for `CNC[C@H](O)c1cccc(O)c1` [Phenylephrine hydrochloride] reads 0.268.
The result for `CC(C)(CO)[C@@H](O)C(=O)NCCCO` [dexpanthenol] reads 0.392.
Regarding `CCOC(=O)[C@H](CCc1ccccc1)N[C@@H](C)C(=O)N1[C@H](C(=O)O)C[C@H]2CCCC[C@@H]21` [trandolapril], the “MUC1 transcript change (Z-score)” value turned out to be 0.0139.
The result for `OC(CCN1CCCCC1)(c1ccccc1)C1CC2C=CC1C2` (stereo not drawn) [biperiden] reads -0.36.
The result for `CCC(c1ccc(O)cc1)C(CC)c1ccc(O)cc1` (stereo not drawn) [hexestrol] reads 0.439; that for `CC(/N=C(\NC#N)Nc1ccncc1)C(C)(C)C` (stereo not drawn) [Pinacidil], 0.138.
For `COCCO/C(O)=C1\C(C)=NC(C)=C(C(=O)OC(C)C)C1c1cccc([N+](=O)[O-])c1` (stereo not drawn) [Nimodipine] the value was 0.0237; for `CCCCC(CC)C/N=C(N)/N=C(\N)NCCCCCCN/C(N)=N/C(N)=N/CC(CC)CCCC` (stereo not drawn) [alexidine hydrochloride], 0.0911.
With `CN[C@@H]1[C@H](OC2[C@H](O[C@H]3[C@H](O)[C@@H](O)[C@H](N=C(N)N)[C@@H](O)[C@@H]3N=C(N)N)O[C@@H](C)[C@]2(O)C=O)O[C@@H](CO)[C@H](O)[C@H]1O` (stereo partly drawn) [streptomycin sulfate], the “MUC1 transcript change (Z-score)” value came out at 0.533.
The result for `CO[C@H]1C[C@@H]2CC[C@@H](C)[C@@](O)(O2)C(=O)C(=O)N2CCCC[C@H]2C(=O)O[C@H]([C@H](C)C[C@@H]2CC[C@@H](O)[C@H](OC)C2)CC(=O)[C@H](C)/C=C(\C)[C@@H](O)[C@@H](OC)C(=O)[C@H](C)C[C@H](C)/C=C/C=C/C=C/1C` [sirolimus] reads -2.09; that for `C[C@@H](O)[C@H]1C(=O)N2C(C(=O)O)=C(SCC/N=C/N)C[C@H]12` [imipenem], -0.0178.
With `C[C@]12CCC(=O)C=C1CCC1C2[C@@H](O)C[C@@]2(C)C1CC[C@]2(O)C(=O)CO` (stereo partly drawn) [hydrocortisone], the “MUC1 transcript change (Z-score)” value is -1.08.
For `C#C[C@]1(O)CC[C@H]2[C@@H]3CCc4cc(OC)ccc4[C@H]3CC[C@@]21C` [mestranol] the value was -0.321; for `Nc1nc(F)nc2c1ncn2[C@@H]1O[C@H](COP(=O)(O)O)[C@@H](O)[C@@H]1O` [fludarabine phosphate], 0.706.
For `CCN1CCCC1CNC(=O)c1cc(S(=O)(=O)CC)c(N)cc1OC` (stereo not drawn) [amisulpride] the value was -0.657; for `Cc1c(C(N)=O)cc([N+](=O)[O-])cc1[N+](=O)[O-]` [dinitolmide], 0.781; for `Cc1nc(C)c(Cl)c(O)c1Cl` [clopidol], 0.845.
For `[NH2][Pt]([NH2])([Cl])[Cl]` [cisplatin] the value was 0.145.
As for `Nc1c2c(nc3ccccc13)CCCC2` [9-Amino-1,2,3,4-tetrahydroacridine hydrochloride], the “MUC1 transcript change (Z-score)” value was found to be 0.713.
The result for `C[C@@H]1CN(c2c(F)c(N)c3c(=O)c(C(=O)O)cn(C4CC4)c3c2F)C[C@H](C)N1` [sparfloxacin] reads 0.47; that for `CC1(C)S[C@@H]2[C@H](NC(=O)[C@H](C(=O)O)c3cccs3)C(=O)N2[C@H]1C(=O)O` [ticarcillin disodium], 0.0368; that for `OC(CCN1CCCCC1)(c1ccccc1)c1ccccc1` [pridinol methanesulfonate], 0.233.
Turning to `CN(C)c1ccc2nc3ccc(N(C)C)cc3[s+]c2c1` [methylene blue], the “MUC1 transcript change (Z-score)” value amounted to 1.69.
The result for `OCc1ccccc1` [benzyl alcohol] reads -1.34; that for `CCC1=C[C@@H]2CN(C1)Cc1c([nH]c3ccccc13)[C@@](C(=O)OC)(c1cc3c(cc1OC)N(C)[C@H]1[C@@](O)(C(=O)OC)[C@H](OC(C)=O)[C@]4(CC)C=CCN5CC[C@]31[C@@H]54)C2` [vinorelbine], -0.458.
The result for `CCOC(=O)CCC(=O)O[C@H]1[C@H](O[C@@H]2[C@@H](C)[C@H](O[C@H]3C[C@@](C)(OC)[C@@H](O)[C@H](C)O3)[C@@H](C)C(=O)O[C@H](CC)[C@@](C)(O)[C@H](O)[C@@H](C)C(=O)[C@H](C)C[C@@]2(C)O)O[C@H](C)C[C@@H]1N(C)C` [erythromycin ethylsuccinate] reads -0.261; that for `C[C@H]1[C@H](NC(=O)/C(=N\OC(C)(C)C(=O)O)c2csc(N)n2)C(=O)N1S(=O)(=O)O` [aztreonam], -1.88.
For `CCCCCCCCCCCCCCCC(=O)OCC(O)[C@H]1OC(O)=C(O)C1=O` (stereo partly drawn) [ascorbyl palmitate] the value was -0.0175; for `CC(C[N+](C)(C)C)OC(N)=O` (stereo not drawn) [Bethanechol chloride], 0.396; for `CO/N=C1\CN(c2nc3c(cc2F)c(=O)c(C(=O)O)cn3C2CC2)CC1CN` (stereo not drawn) [gemifloxacin mesylate], -0.0994.
For `CC(=O)N1CCN(c2ccc(OCC3CO[C@](Cn4ccnc4)(c4ccc(Cl)cc4Cl)O3)cc2)CC1` (stereo partly drawn) [ketoconazole], the “MUC1 transcript change (Z-score)” value was -0.2.
The result for `O=C(Nc1ccc(C(=O)O)c(O)c1)c1ccccc1` [benzoylpas] reads 0.382.
For `c1ccc(C2CN3CCSC3=N2)cc1` (stereo not drawn) [tetramizole hydrochloride] the value was -0.821; for `CC(C)Cc1ccc(C(C)C(=O)O)cc1` (racemic) [(±)-Ibuprofen], 0.232.
Consider `CCOc1nc2cccc(C(=O)OCc3oc(=O)oc3C)c2n1Cc1ccc(-c2ccccc2-c2noc(O)n2)cc1` [azilsartan kamedoxomil], for which the “MUC1 transcript change (Z-score)” value was -0.499.
The result for `C#C[C@]1(O)CC[C@H]2[C@@H]3[C@H](C)CC4=C(CCC(=O)C4)[C@H]3CC[C@@]21C` [tibolone] reads 0.459; that for `OC[C@@H](O)[C@@H](O)[C@H](O)[C@@H](O)CO` [mannitol], 0.495.
For `CCCCC(=O)O[C@]1(C(=O)CO)[C@@H](C)C[C@H]2[C@@H]3CCC4=CC(=O)C=C[C@]4(C)[C@@]3(F)[C@@H](O)C[C@@]21C` [betamethasone valerate] the value was 0.0898; for `C[N+]1(C)CCC(OC(=O)C(O)(c2ccccc2)C2CCCC2)C1` (stereo not drawn) [glycopyrrolate], 1.27; for `CC(=O)OCC(=O)[C@@]1(O)CC[C@H]2[C@@H]3CCC4=CC(=O)C=C[C@]4(C)[C@@]3(F)[C@@H](O)C[C@@]21C` [isoflupredone acetate], -0.622.
For `Oc1ccc(O)cc1` [hydroquinone] the value was -0.645; for `CCn1cc(C(=O)O)c(=O)c2cnc(N3CCNCC3)nc21` [pipemidic acid], -0.0487.
For the molecule `O=C(O)c1cc(=O)c2c(OCC(O)COc3cccc4oc(C(=O)O)cc(=O)c34)cccc2o1` [cromolyn sodium], the “MUC1 transcript change (Z-score)” value was -0.972.
For `NCC1CCCCC1CC(=O)O` (stereo not drawn) [gabapentin] the value was 0.598; for `CC(=O)N[C@@H](CC(C)C)C(=O)O` [acetyl-l-leucine], -0.706.
Take `O=C1c2ccccc2C(=O)C1c1ccc(Br)cc1` [bromindione]: the “MUC1 transcript change (Z-score)” value is 1.25.
Consider `CN(Cc1cc(Br)cc(Br)c1N)C1CCCCC1` [bromhexine hydrochloride], for which the “MUC1 transcript change (Z-score)” value stood at 0.341.
Consider `CC(O)Cn1cnc2c1c(=O)n(C)c(=O)n2C` (stereo not drawn) [proxyphylline], for which the “MUC1 transcript change (Z-score)” value amounted to 0.396.
For `COc1ccc2c(c1)c(CC(=O)OCC(=O)O)c(C)n2C(=O)c1ccc(Cl)cc1` [acemetacin] the value was -0.19; for `Nc1ccc(C(=O)Oc2ccccc2)c(O)c1` [fenamisal], -0.0285.
The result for `O=c1oc2c(O)c(O)cc3c(=O)oc4c(O)c(O)cc1c4c23` [ellagic acid] reads 0.517; that for `Nc1ncnc2c1ncn2[C@@H]1O[C@H](COP(=O)(O)O)[C@@H](O)[C@H]1O` [adenosine phosphate], 0.61; that for `NC(=O)N/N=C/c1ccc([N+](=O)[O-])o1` [nitrofurazone], 0.481.
For `CCCc1nc(C)c2c(O)nc(-c3cc(S(=O)(=O)N4CCN(CC)CC4)ccc3OCC)nn12` [vardenafil hydrochloride] the value was -0.699.
As to `C=C1c2c(Cl)ccc(O)c2C(O)=C2C(=O)[C@]3(O)C(O)=C(C(N)=O)C(=O)[C@@H](N(C)C)[C@@H]3[C@@H](O)[C@H]12` [meclocycline sulfosalicylate], the “MUC1 transcript change (Z-score)” value is 0.596.
The result for `CC(=O)Nc1ccc(S(=O)(=O)Nc2onc(C)c2C)cc1` [sulfisoxazole acetyl] reads -0.313; that for `Cc1cc(C(C)(C)C)c(O)c(C(C)(C)C)c1` [2,6-di-t-butyl-4-methylphenol], -0.146; that for `Cc1nc2ccccn2c(=O)c1CCN1CCC(C(=O)c2ccc(F)cc2)CC1` [Pirenperone], -0.0641.
The result for `COc1cc2nc(N3CCN(C(=O)C4COc5ccccc5O4)CC3)nc(N)c2cc1OC` (stereo not drawn) [doxazosin mesylate] reads 0.439.
For `CCCCC(O)c1ccccc1` (stereo not drawn) [fenipentol], the “MUC1 transcript change (Z-score)” value came to 0.401.
The result for `O=C(O)CCCCC1CCSS1` (stereo not drawn) [thioctic acid] reads 1.24; that for `CCCC[C@@H](CC)COC(=O)c1ccccc1O` [octisalate], 0.782; that for `Nc1ccc(S(=O)(=O)Nc2ccnn2-c2ccccc2)cc1` [Sulfaphenazole], -1.02.
For `CO[C@H]1C[C@H](O[C@H]2[C@H](C)O[C@@H](O[C@@H]3/C(C)=C/C[C@@H]4C[C@@H](C[C@]5(C=C[C@H](C)[C@@H](C6CCCCC6)O5)O4)OC(=O)[C@@H]4C=C(C)[C@@H](O)[C@H]5OC/C(=C\C=C\[C@@H]3C)[C@]54O)C[C@@H]2OC)O[C@@H](C)[C@@H]1O` [doramectin] the value was 0.0164.

The values are drawn from the supplement of paper PMC4749390.
